From PMC4635203
No constants are given. Whether binding was seen depends on the method and setting. Binding can be weak; no strength is given.

Target: LUZ24 gp4 (yeast two-hybrid bait) (Pseudomonas aeruginosa phage LUZ24)
Test: two-hybrid; Gal4p-based screen in S. cerevisiae AH109; phage proteins as bait (pGBT9) against a random genomic fragment prey library of P. aeruginosa PAO1; HIS3, ADE2 and MEL1 reporters; reproduced in an independent experiment with fresh yeast cells

B1: MvaT (PA4315) prey fragment, amino acids 1-80 (domain or fragment, UniProt Q9HW86 1-80)
chain: MSLINEYRATEEAIKELQERLKSLEQDDKLKKELEFEEKLRTLMGTYQKSLRDVISLLDPDAKIGKSTRTAKAPAGKRAR
With B1 as the binder, how does the binding read?
The binding was “binds”.
